Assay results from publication PMC5416842, “The ribosome biogenesis factor yUtp23/hUTP23 coordinates key interactions in the yeast and human pre-40S particle and hUTP23 contains an essential PIN domain” (Nucleic Acids Research, 2017).

Key:
[1] = biological target: T1, GST-yUtp23 WT (Saccharomyces cerevisiae) (UniProt Q12339); assay: EMSA; settings: EMSA: 10 mM Tris/HCl pH 7.6, 75 mM NaCl, 2 mM DTT, 100 ng/ul BSA, 0.8 U/ul RNasin, 4.5% glycerol, 0.05% Tween20, 500 ng/ul E. coli tRNA, 10 min 30 C then 10 min on ice, recombinant protein, residues 1-254, protein details: N-terminal GST (pGEX-6P1), probe letters rebuilt from the primers and the genome
T1 sequence (looked up): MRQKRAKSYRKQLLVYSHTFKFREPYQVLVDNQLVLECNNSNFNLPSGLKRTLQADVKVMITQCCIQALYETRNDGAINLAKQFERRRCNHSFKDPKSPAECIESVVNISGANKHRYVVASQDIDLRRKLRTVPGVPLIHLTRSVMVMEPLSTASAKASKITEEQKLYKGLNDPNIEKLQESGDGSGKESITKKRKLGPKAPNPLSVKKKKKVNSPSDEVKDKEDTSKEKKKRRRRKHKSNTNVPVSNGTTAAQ

[2] = biological target: T2, GST-yUtp23 C102A (Saccharomyces cerevisiae) (UniProt Q12339); assay: EMSA; settings: 250 and 2500 nM, unresolved, likely non-specific complexes at high concentration; EMSA: 10 mM Tris/HCl pH 7.6, 75 mM NaCl, 2 mM DTT, 100 ng/ul BSA, 0.8 U/ul RNasin, 4.5% glycerol, 0.05% Tween20, 500 ng/ul E. coli tRNA; 10 min 30 C then 10 min on ice; recombinant protein; residues 1-254; protein details: N-terminal GST (pGEX-6P1); label: 32P-UTP body; probe letters rebuilt from the primers and the genome
T2 sequence (looked up): T1 sequence (looked up) with C102A

GGAACCAUAGUCUCGUGCUAGUUCGGUACUAUACAGGGAAGGGAAGUCACUCGCAUACGUGUGUGUGCAUUUCUUGCUAUUGCUGCUUAGCUUCUCUAAAACACUGGGCUAGCGUUUUUCAACGCUCGAGAGGCAGAGUCUCAAGGAGCCUCCAAUGGGCCUCACGUAUUCAUCUAGAUGGCGCUUCGGACAACGGCAUCACAUAAGAGAUGCAGCUCCUGACUUCUCCUCUGAUCUUCGUGAUCAGAGUUUUGAGUCGUCAGACUACGAGCAGUUUCUCUUAGUCGUUGCAUCGGGUGCUGUUGCCUUAACGAUGUGUAUAUGGGGUUCGGGGGCUGUUGCCAUGAUAUAUAUGGAUGAGACAGAAGUGGCCCCGUUGACGAGUUUAACUUAGAUUAAG [snR30 5' hairpin (nt 1-398)]
binding result ([1]; 1300 nM protein, label: 32P-UTP body): no binding

GGAACCAUAGUCUCGUGCUAGUUCGGUACUAUACAGGGAAGGGAAGUCACUCGCAUACGUGUGUGUGCAUUUCUUGCUAUUGCUGCUUAGCUUCUCUAAAACACUGGGCUAGCGUUUUUCAACGCUCGAGAGGCAGAGUCUCAAGGAGCCUCCAAUGGGCCUCACGUAUUCAUCUAGAUGGCGCUUCGGACAACGGCAUCACAUAAGAGAUGCAGCUCCUGACUUCUCCUCUGAUCUUCGUGAUCAGAGUUUUGAGUCGUCAGACUACGAGCAGUUUCUCUUAGUCGUUGCAUCGGGUGCUGUUGCCUUAACGAUGUGUAUAUGGGGUUCGGGGGCUGUUGCCAUGAUAUAUAUGGAUGAGACAGAAGUGGCCCCGUUGACGAGUUUAACUUAGAUUAAGUAGGACGCAUGAUCUUGAGCUCUUUUCCUAUACUUUGUCCUAUGGCCAGCUUUCUCCUUAUUACGAAGAGAUUGCGGGAUGUGGGUGCAGAGUGGGAAAAUCUGAGUUCGGUCAUCUUUGUUGUUCGUCCUACCGCAGUAUAUUCCUAAACACUAUGAAAUGACCCUAGUUGGUCCAUGAUCAUUUGGGUAAAACCAUACUGCAGACAUCU [snR30 full length (nt 1-606)]
binding result [2]: binds more weakly | Kd ([1]; 100-1000 nM protein, label: 32P-UTP body): 300 nM

GGAACCAUAGUCUCGUGCUAGUUCGGUACUAUACAGGGAAGGGAAGUCACUCGCAUACGUGUGUGUGCAUUUCUUGCUAUUGCUGCUUAGCUUCUCUAAAACACUGGGCUAGCGUUUUUCAACGCUCGAGAGGCAGAGUCUCAAGGAGCCUCCAAUGGGCCUCACGUAUUCAUCUAGAUGGCGCUUCGGACAACGGCAUCACAUAAGAGAUGCAGCUCCUGACUUCUCCUCUGAUCUUCGUGAUCAGAGUUUUGAGUCGUCAGACUACGAGCAGUUUCUCUUAGUCGUUGCAUCGGGUGCUGUUGCCUUAACGAUGUGUAUAUGGGGUUCGGGGGCUGUUGCCAUGAUAUAUAUGGAUGAGACAGAAGUGGCCCCGUUGACGAGUUUAACUUAGAUUAACGCAGUAUAUUCCUAAACACUAUGAAAUGACCCUAGUUGGUCCAUGAUCAUUUGGGUAAAACCAUACUGCAGACAUCU [snR30 FL deltaIH]
binding result ([1]; 1300 nM protein, severely reduced, label: 32P-UTP body): binds more weakly

GGCGUAUUGCUCGAAUAUAUUAGCAUGGAAUAAUAGAAUAGGACGUUUGGUUCUAUUUUGUUGGUUUCUAGGACCAUCGUAAUGAUUAAUAGGGACGGUCGGGGGCAUCAGUAUUCAAUUGUCAGAGGUGAAAUUCUUGGAUUUAUUGAAGACUAACUACUGCGAAAGCAUUUGCCAAGGACGUUUUCA [18S rRNA ES6 fragment (nt 775-963, RNA A)]
binding result ([1]; 5000 nM protein, very low efficiency, label: 32P-UTP body (unlabelled as competitor)): binds more weakly

GGAACCAUAGUCUCGUGCUAGUUCGGUACUAUACAGGGAAGGGAAGUCACUCGCAUACGUGUGUGUGCAUUUCUUGCUAUUGCUGCUUAGCUUCUCUAAAACACUGGGCUAGCGUUUUUCAACGCUCGAGAGGCAGAGUCUCAAGGAGCCUCCAAUGGGCCUCACGUAUUCAUCUAGAUGGCGCUUCGGACAACGGCAUCACAUAAGAGAUGCAGCUCCUGACUUCUCCUCUGAUCUUCGUGAUCAGAGUUUUGAGUCGUCAGACUACGAGCAGUUUCUCUUAGUCGUUGCAUCGGGUGCUGUUGCCUUAACGAUGUGUAUAUGGGGUUCGGGGGCUGUUGCCAUGAUAUAUAUGGAUGAGACAGAAGUGGCCCCGUUGACGAGUUUAACUUAGAUUAAGUAGGACGCAUGAUCUUGAGCUCUUUUCCUAUACUUUGUCCUAUGGCCAGCUUUCUCCUUAUUACGAAGAGAUUGCGGGAUGUGGGUGCAGAGUGGGAAAAUCUGAGUUCGGUCAUCUUUGUUGUUCGUCCUAC [snR30 nt 1-531 (5' HP + IH)]
binding result ([1]; 1300 nM protein, binding restored, label: 32P-UTP body): binds

Where a chain is given by its changes, count along the chain named. For part of these data: Negatives hold for the conditions tested. Tags and fusion partners may be left off the protein sequences shown. Weaker means in comparison with the reference protein, sequence or condition of that experiment. For part of these data: For at least one entry, the source does not settle the construct or the ends of the probe.
